# Assay results taken from PubChem BioAssay AID504648 (National Center for Advancing Translational Sciences (NCATS), 2011).
# The campaign covered roughly 390,000 compounds. About 610 (0.16%) were called active. Inconclusive means that the source gave no clear call. Such entries were picked first, then a sample of the others. The call rests on the fitted dose curve; in most records, active means well fitted inhibition curve with a large enough effect; inconclusive means small, poorly fitted or top-dose-only effect, or effect the other way, or another doubt; inactive means no such curve, though single readings can be large or run the other way. Potencies beside an inconclusive call are fits to weak or partial responses and may not hold up.
# Experiment: Nrf2 qHTS screen for inhibitors: counterscreen for cytotoxicity
# Settings: A549 ARE-Fluc cells, CellTiter-Fluor viability, 18-24 h; activity change, negative = cytotoxicity: at 46 µM (top of the series)
# In short: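 A549 ARE-Fluc cells in 5% FBS OPTI-MEM, 5000 cells/well, rested 2 h then exposed to compounds in concentration-response for 18-24 h at 37 °C. Viability by CellTiter-Fluor fluorescence (Ex 405/Em 525) after 30 min; luciferase luminescence (BugLite, 15 min, RT) read afterwards.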
# On the % scale 0 is the no-effect control and ±100 the full control effect; potency means the concentration at half of the fitted maximal effect.
Compound,"activity change, negative = cytotoxicity",Potency
COc1ccc(C(=O)NCc2ccc3c(c2)CCN3C(C)=O)cc1OC,inactive: 2.31%,–
O=C(NCCc1cn2ccccc2n1)c1cc(COc2ccc3ncccc3c2)on1,–,"inconclusive: 14.6 µM [falling, partial curve, poor fit]"
CN(C)c1ccc(NC(=O)c2cccc(C(=O)Nc3ccc(N(C)C)cc3)n2)cc1,–,"inconclusive: 23.1 µM [falling, partial curve, poor fit]"
CNc1nc(N/N=C/c2cc3c(cc2[N+](=O)[O-])OCO3)nc(Nc2ccccc2)n1,–,"inconclusive: 25.9 µM [falling, single point]"
COc1ccc(-c2nn(-c3ccccc3)cc2C(=O)N2CCN(S(=O)(=O)c3ccccc3C#N)CC2)cc1,inactive: -9.17%,–
COc1cc(/C=C2\SC(=O)N(Cc3ccc(F)cc3)C2=O)cc([N+](=O)[O-])c1O,–,"inconclusive: 16.4 µM [falling, partial curve]"
COc1ccc(C(=O)N2CCCCC2CCN2CCOCC2)cc1 (stereo not given),inactive: 1.31%,–
COc1cccc(-n2cc(CN(C)Cc3nc(Cc4cccc(F)c4)no3)cn2)c1,inactive: 8.77%,–
COc1cc(/C=C2\SC(=O)N(c3ccccc3Cl)C2=O)cc([N+](=O)[O-])c1O,–,"inconclusive: 16.4 µM [falling, partial curve]"
CCOc1ccc(NC(=O)CC2Nc3cccc4cccc(c34)NC2=O)cc1 (stereo not given),inactive: -14.9%,–
CCN(CC)Cc1c(O)c(Cl)cc2c(C)c(C)c(=O)oc12,–,"inconclusive: 25.9 µM [activator, partial curve, poor fit]"
Cc1ccc(S(=O)(=O)Nc2cc(Br)cc3cccnc23)cc1,–,"inconclusive: 29.1 µM [falling, single point]"
O=C(c1ccccc1Cl)N1CCCC(c2nc3c(nnn3Cc3ccc(F)cc3F)c(=O)[nH]2)C1 (stereo not given),–,"inconclusive: 16.4 µM [falling, single point]"
CC(C)Sc1ncc(Cl)c(C(=O)Nc2nc3ccc(S(C)(=O)=O)cc3s2)n1,–,"inconclusive: 23.1 µM [falling, single point]"
Cc1ccccc1Cn1c(=O)n(CC2CCC(C(=O)N3CCC(C)CC3)CC2)c(=O)c2sccc21 (stereo not given),–,"inconclusive: 18.4 µM [falling, single point]"
CCN(Cc1ccccc1)c1ccc(/C=N/NS(=O)(=O)c2ccc(C)c([N+](=O)[O-])c2)cc1,–,"inconclusive: 10.3 µM [activator, partial curve, poor fit]"
Cc1nc(SCC(=O)N2CCCc3ccccc32)c2oc3ccccc3c2n1,inactive: -7.3%,–
COc1ccc(NC(=O)c2cc3ccc(O)cc3o/c2=N\O)cc1,–,"inconclusive: 29.1 µM [falling, single point]"
COc1ccc(C(=O)Nc2cc3cc(Cl)ccc3oc2=O)cc1OC,inactive: 1.19%,–
Cc1ccc(C2=NN=C(NC(=O)CSc3nnc4c5ccccc5n(C)c4n3)SC2)cc1,–,"inconclusive: 23.1 µM [falling, single point]"
CC(=O)Nc1ccccc1OCc1cc(=O)n2c(C)csc2n1,inactive: -2.96%,–
COc1cc(N2CCCC2)c(OC)cc1/C=C1/NC(=S)NC1=O,inactive: -21.7%,–
NC(N)=Nc1nc(-c2ccccc2)c2cc(F)ccc2n1,–,"inconclusive: 20.6 µM [falling, partial curve]"
CCOc1cc(C2C(C#N)=C(N)Oc3n[nH]c(-c4ccncc4)c32)cc([N+](=O)[O-])c1O (stereo not given),–,"inconclusive: 23.1 µM [falling, single point]"

Compound,"activity change, negative = cytotoxicity",Potency
Cc1ccn2c(NC(=O)C(C)(C)Oc3ccc(Cl)cc3)c(-c3cccs3)nc2c1,–,"inconclusive: 18.4 µM [falling, single point]"
Cc1c(C)c2cccnc2c2ncccc12,–,active: 5.8 µM
COc1ccc(CN(C(=O)c2oc3cc(C)ccc3c2C)C2CCS(=O)(=O)C2)cc1OC (stereo not given),inactive: 0.694%,–
O=C(COc1ccc(C(=O)c2ccc(F)cc2)cc1)Nc1cccc(S(=O)(=O)N2CCOCC2)c1,inactive: -12.5%,–
COc1ccc(NC(=O)/C(Cl)=C(/Cl)S(=O)Cc2ccccc2Cl)cn1 (stereo not given),–,active: 14.6 µM
CCOc1ccc(OCCNC(=O)c2cc(C3CC3)nc3c2cnn3C(C)C)cc1,inactive: -2.23%,–
CO/N=C\CC(=O)Nc1ccc(Cl)cc1Cl,inactive: -15.2%,–
O=C(NNc1ccccc1Br)C(O)(c1cccc(C(F)(F)F)c1)c1cccc(C(F)(F)F)c1,–,"inconclusive: 29.1 µM [falling, single point]"
O=C(Oc1ccc(N(Cc2cccs2)C2=NS(=O)(=O)c3ccccc32)cc1)c1ccccc1Cl,inactive: -5.11%,–
CCN1CCc2c(sc(NC(=O)Cc3ccccc3)c2C(N)=O)C1,inactive: 0.476%,–
COc1ccc(C)cc1S(=O)(=O)Nc1cccnc1,–,"inconclusive: 10.3 µM [activator, partial curve, poor fit]"
COc1ccc(-c2cc3nc(C)cc(NCCO)n3n2)cc1,–,"inconclusive: 23.1 µM [activator, partial curve, poor fit]"
CN(CCC#N)C(=O)COC(=O)c1c2c(nc3ccccc13)/C(=C\c1ccco1)CC2,inactive: 2.11%,–
O=C1C=CC2=C3c4cc(O)c(O)cc4CC3(O)COC2=C1O (stereo not given),–,"inconclusive: 25.9 µM [falling, single point]"
Cc1cccc(CN2CCN(c3ccccn3)CC2)c1,–,"inconclusive: 29.1 µM [activator, single point]"
O=C(O)CCC(=O)Nc1ccc(-c2nc3ccc(C(=O)c4ccccc4)cc3[nH]2)cc1,inactive: -6.82%,–
O=C(Nc1ccc(-c2cn3cccnc3n2)cc1)c1ccccc1F,inactive: -5.67%,–
CCn1c(CN2CCCCC2)nc2cc(NC(=O)COc3cc(C)ccc3C(C)C)ccc21,–,"inconclusive: 32.6 µM [falling, single point]"
Cc1cc(N/N=C/c2ccc([N+](=O)[O-])o2)nc2ccccc12,inactive: -25.7%,–
COc1cc2c(cc1OC)C(COc1ccccc1OC)N(C(=O)c1ccc(S(=O)(=O)N3CCCC3)cc1)CC2 (stereo not given),inactive: -2.69%,–
CCNc1ccc2noc3c2c1C(=O)c1ccccc1-3,–,"inconclusive: 29.1 µM [falling, single point]"
COc1cc(/C=N/OCC(=O)NC2CCCCC2C)ccc1OCc1ccc(Cl)cc1 (stereo not given),–,"inconclusive: 18.4 µM [falling, partial curve, poor fit]"
CC(C)(CNC(=O)C1CCN(S(=O)(=O)c2cc([N+](=O)[O-])ccc2Cl)CC1)N1CCOCC1,–,"inconclusive: 23.1 µM [activator, partial curve, poor fit]"
O=C(Nc1ccc(Br)cc1)c1ccc(CSC2=NCCS2)cc1,–,"inconclusive: 32.6 µM [falling, partial curve, poor fit]"

# An excerpt of these results, tab-delimited.
Compound	activity change, negative = cytotoxicity	Potency
COc1ccc(-c2cc3nc(C)cc(NCCO)n3n2)cc1	–	inconclusive: 23.1 µM [activator, partial curve, poor fit]
O=C(O)CCC(=O)Nc1ccc(-c2nc3ccc(C(=O)c4ccccc4)cc3[nH]2)cc1	inactive: -6.82%	–
O=C(Nc1ccc(-c2cn3cccnc3n2)cc1)c1ccccc1F	inactive: -5.67%	–
Cc1cc(N/N=C/c2ccc([N+](=O)[O-])o2)nc2ccccc12	inactive: -25.7%	–
O=C(Nc1ccc(Br)cc1)c1ccc(CSC2=NCCS2)cc1	–	inconclusive: 32.6 µM [falling, partial curve, poor fit]

# (further entries)

Compound,"activity change, negative = cytotoxicity",Potency
CC(=O)Nc1ccc(Nc2nc(Nc3ccc(Cl)cc3)nc(N3CCOCC3)n2)cc1,inactive: 12.6%,–
COC(=O)CSCc1nc(-c2ccc(C(=O)OC)cc2)oc1C,inactive: -7.47%,–
COCCCNC(=O)CN1C(=O)COc2ccc(S(=O)(=O)N3CCOCC3)cc21,–,"inconclusive: 7.31 µM [activator, partial curve, poor fit]"
COc1cc(C2C(C#N)=C(C)NC3=C2C(=O)c2ccccc23)cc(OC)c1OC (stereo not given),–,"inconclusive: 0.461 µM [falling, full curve, poor fit]"
O=C1C2C3C=CC(O3)C2C(=O)N1CC(O)c1ccccc1 (stereo not given),inactive: -6.43%,–
COCCCNC(=O)c1sc2nc(C)c(C(=O)Nc3ccc(Cl)cc3)c(-c3ccc(Br)cc3)c2c1N,inactive: -5.88%,–
CCCN(CCC)c1nc(NC2CCN(C(=O)OCC)CC2)nc(OC)n1,–,"inconclusive: 20.6 µM [falling, single point]"
Cc1cccc(Nc2nc(C#N)nc(NC3CCCC3)n2)c1,–,"inconclusive: 29.1 µM [falling, single point]"
COc1cccc(NC(=O)CSc2cc(C)[nH]c(=O)n2)c1,inactive: 0.0234%,–
NC(=O)[C@H]1CC2(CC(c3cccc(NC(=O)COc4ccc(Cl)cc4)c3)=NO2)CN1C(=O)c1ccc(Cl)cc1 (stereo not given in full),–,"inconclusive: 23.1 µM [falling, single point]"
Cc1ccc(C)c(N2CCN(C(=O)Cc3cn(C)c4ccccc34)CC2)c1,–,"inconclusive: 29.1 µM [falling, single point]"
COc1ccc(-n2nc(C(=O)NCC(=O)Nc3cc(OC)c(OC)c(OC)c3)c3ccccc3c2=O)cc1,–,"inconclusive: 14.6 µM [falling, partial curve, poor fit]"
Cc1cc2c(C)cc(=O)oc2c2c1NCCC2,–,"inconclusive: 11.2 µM [activator, partial curve]"
CCc1cccc(N=c2c([N+](=O)[O-])nn(-c3ccc4c(c3)OCCO4)n2O)c1,–,"inconclusive: 18.4 µM [falling, partial curve, poor fit]"
COc1ccc(C(=O)CSc2nnc(COc3ccc(C#N)cc3)n2-c2ccccc2)cc1,–,"inconclusive: 4.61 µM [falling, partial curve]"
Cc1c(C(=O)N(C)c2ccccc2)sc2nc(-c3ccc(F)cc3)cn12,inactive: -5.19%,–
CCc1ccc(S(=O)(=O)ON2C(=O)c3ccccc3C2=O)cc1,inactive: -9.31%,–
O=c1[nH]cnc2c1ncn2Cc1ccc([N+](=O)[O-])cc1,–,"inconclusive: 16.4 µM [activator, single point]"
COc1ccc(-n2c(Cc3ccccc3)nnc2SCc2nc(-c3ccccc3C)no2)cc1,–,"inconclusive: 29.1 µM [falling, single point]"
CCOC(=O)c1sc2nc(N3CCOCC3)c3c(c2c1N)CCCC3,inactive: 0.522%,–
COc1ccc(Nc2ccc(Nc3ccc(OC)cc3)nn2)cc1,–,"inconclusive: 6.51 µM [activator, full curve, poor fit]"
COc1ccc(CCn2c(C)cc(C(=O)CN3C(=O)C(=O)N(C4CCCC4)C3=O)c2C)cc1OC,inactive: -1.27%,–
